Assay results: publication PMC8875111
Results are given in words; binding and its absence hold for the method and conditions named. In cells and extracts the contact can be indirect. Some binding calls cover weakened binding; strength is not graded here. Tags and fused reporters may be left off the sequences shown.

Sequences of proteins named here, by UniProt entry; tags and fusion partners are left off.
UniProt P49841: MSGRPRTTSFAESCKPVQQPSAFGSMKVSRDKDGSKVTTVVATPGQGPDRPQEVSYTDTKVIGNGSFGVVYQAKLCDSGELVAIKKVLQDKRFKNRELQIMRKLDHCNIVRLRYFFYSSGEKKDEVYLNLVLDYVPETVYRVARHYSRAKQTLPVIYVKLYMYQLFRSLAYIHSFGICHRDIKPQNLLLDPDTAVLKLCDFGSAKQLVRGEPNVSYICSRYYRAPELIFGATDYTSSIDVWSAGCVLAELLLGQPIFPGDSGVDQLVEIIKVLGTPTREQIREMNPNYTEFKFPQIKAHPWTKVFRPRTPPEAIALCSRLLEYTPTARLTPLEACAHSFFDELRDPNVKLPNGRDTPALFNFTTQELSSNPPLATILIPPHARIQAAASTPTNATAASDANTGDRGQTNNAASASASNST

Target: T1, IBtkα-FLAG (UniProt Q9P2D0)
T1 sequence: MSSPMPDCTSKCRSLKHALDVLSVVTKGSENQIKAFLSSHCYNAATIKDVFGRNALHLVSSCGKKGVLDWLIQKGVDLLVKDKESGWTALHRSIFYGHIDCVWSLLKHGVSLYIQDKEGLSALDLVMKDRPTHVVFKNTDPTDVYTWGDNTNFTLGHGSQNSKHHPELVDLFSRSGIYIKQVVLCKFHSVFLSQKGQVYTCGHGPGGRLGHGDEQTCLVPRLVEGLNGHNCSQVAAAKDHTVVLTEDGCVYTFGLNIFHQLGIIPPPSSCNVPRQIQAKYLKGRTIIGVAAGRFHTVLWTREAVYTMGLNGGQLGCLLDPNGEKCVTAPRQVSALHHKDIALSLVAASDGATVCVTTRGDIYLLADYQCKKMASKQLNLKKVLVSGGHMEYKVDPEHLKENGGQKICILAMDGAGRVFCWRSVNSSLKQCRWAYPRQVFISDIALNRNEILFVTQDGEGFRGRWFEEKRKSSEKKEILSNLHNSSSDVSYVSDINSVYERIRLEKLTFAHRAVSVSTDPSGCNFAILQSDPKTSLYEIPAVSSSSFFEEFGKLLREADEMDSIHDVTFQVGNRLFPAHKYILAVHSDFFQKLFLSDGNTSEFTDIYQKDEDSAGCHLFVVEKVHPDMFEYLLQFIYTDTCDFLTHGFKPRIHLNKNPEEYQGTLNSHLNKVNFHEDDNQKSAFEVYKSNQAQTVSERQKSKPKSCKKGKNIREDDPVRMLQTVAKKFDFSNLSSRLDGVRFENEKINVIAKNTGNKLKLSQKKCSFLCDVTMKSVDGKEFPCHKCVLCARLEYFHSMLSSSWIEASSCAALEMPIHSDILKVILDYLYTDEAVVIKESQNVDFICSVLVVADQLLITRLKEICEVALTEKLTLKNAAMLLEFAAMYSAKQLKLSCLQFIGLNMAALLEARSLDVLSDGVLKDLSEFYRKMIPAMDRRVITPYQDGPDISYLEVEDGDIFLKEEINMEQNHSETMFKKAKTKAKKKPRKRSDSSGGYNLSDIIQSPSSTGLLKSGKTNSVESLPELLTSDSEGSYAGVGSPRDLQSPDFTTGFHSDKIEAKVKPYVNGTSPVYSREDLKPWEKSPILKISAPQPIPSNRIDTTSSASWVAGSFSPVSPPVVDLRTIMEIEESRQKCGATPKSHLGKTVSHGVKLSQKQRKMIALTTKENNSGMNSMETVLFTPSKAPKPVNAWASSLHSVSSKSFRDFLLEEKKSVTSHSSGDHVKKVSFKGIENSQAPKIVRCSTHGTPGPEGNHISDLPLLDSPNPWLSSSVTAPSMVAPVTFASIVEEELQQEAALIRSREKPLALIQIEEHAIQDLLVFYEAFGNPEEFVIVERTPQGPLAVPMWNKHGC
Assay: co-IP; HEK293T cells transfected with pCMV6-IBtkα-FLAG or empty pCMV6, treated with MG132 (20 uM, 4 h); lysed in RIPA buffer (50 mM Tris-HCl pH 8.0, 150 mM NaCl, 1 mM EDTA, 1% Igepal, 0.5% sodium deoxycholate); anti-FLAG antibody on protein G beads; Western blot with anti-FLAG and anti-GSK3β

binding: binds
Substance: glycogen synthase kinase 3 β (GSK3β) (from UniProt P49841 1-420)
